Source: the supplement of paper PMC12067093, “Discovery and optimisation of a covalent ligand for TRIM25 and its application to targeted protein ubiquitination” (Chemical Science, 2025)
The list shows a part of the results.
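Also: competitive chemoproteomic profiling in live THP-1 cells with an iodoacetamide desthiobiotin (IA-DTB) probe, comparing probe-labelled peptide intensities in compound-treated cells against DMSO-treated controls.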

Protein sequences, listed by entry. Tags and fused reporters are not part of them. Lines headed by an entry give the natural chain unless they say otherwise; changes in a name come on top.
UniProt Q96CX6, whole entry, looked up: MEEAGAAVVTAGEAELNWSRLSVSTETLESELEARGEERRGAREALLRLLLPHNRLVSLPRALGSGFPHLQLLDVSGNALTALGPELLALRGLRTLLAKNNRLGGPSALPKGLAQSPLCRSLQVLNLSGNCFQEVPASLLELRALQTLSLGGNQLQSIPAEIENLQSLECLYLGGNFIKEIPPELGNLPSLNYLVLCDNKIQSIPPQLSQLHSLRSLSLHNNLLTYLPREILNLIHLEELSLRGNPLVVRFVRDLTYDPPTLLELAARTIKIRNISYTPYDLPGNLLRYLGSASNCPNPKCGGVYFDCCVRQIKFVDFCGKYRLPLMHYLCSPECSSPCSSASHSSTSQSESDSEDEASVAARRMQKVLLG
UniProt P18858, whole entry, looked up: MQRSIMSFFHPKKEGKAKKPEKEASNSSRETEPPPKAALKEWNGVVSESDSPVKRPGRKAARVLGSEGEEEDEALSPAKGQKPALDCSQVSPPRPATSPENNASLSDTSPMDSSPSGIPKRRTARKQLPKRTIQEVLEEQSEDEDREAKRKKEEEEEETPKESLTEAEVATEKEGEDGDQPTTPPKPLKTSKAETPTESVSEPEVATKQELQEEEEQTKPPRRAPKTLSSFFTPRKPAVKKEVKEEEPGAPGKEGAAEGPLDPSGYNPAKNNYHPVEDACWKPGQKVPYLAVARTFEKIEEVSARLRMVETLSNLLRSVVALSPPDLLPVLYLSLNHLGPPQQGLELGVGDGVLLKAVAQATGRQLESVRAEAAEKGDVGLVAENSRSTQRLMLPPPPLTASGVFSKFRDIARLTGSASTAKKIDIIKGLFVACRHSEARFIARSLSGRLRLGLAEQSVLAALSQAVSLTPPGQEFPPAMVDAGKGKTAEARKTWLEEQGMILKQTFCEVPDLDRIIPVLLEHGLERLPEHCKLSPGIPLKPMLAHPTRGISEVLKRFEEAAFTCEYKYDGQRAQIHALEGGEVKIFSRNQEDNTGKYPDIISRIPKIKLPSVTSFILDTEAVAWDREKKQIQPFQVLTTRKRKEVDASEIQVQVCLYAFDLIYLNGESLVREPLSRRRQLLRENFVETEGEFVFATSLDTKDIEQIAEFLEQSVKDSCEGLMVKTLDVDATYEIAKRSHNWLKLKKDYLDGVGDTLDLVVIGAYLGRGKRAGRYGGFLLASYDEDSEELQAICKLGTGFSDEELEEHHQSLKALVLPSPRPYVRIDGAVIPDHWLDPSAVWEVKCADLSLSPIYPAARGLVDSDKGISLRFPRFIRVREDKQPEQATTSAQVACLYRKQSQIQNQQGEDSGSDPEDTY
UniProt P48059, whole entry, looked up: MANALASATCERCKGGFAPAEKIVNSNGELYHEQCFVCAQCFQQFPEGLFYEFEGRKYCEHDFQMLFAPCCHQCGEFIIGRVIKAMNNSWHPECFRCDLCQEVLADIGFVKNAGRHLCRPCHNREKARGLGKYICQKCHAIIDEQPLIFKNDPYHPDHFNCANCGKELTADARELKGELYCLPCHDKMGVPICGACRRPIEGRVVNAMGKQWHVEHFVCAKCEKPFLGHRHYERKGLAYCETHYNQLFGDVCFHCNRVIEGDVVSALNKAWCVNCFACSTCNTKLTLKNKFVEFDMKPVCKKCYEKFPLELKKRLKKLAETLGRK
UniProt Q32MZ4: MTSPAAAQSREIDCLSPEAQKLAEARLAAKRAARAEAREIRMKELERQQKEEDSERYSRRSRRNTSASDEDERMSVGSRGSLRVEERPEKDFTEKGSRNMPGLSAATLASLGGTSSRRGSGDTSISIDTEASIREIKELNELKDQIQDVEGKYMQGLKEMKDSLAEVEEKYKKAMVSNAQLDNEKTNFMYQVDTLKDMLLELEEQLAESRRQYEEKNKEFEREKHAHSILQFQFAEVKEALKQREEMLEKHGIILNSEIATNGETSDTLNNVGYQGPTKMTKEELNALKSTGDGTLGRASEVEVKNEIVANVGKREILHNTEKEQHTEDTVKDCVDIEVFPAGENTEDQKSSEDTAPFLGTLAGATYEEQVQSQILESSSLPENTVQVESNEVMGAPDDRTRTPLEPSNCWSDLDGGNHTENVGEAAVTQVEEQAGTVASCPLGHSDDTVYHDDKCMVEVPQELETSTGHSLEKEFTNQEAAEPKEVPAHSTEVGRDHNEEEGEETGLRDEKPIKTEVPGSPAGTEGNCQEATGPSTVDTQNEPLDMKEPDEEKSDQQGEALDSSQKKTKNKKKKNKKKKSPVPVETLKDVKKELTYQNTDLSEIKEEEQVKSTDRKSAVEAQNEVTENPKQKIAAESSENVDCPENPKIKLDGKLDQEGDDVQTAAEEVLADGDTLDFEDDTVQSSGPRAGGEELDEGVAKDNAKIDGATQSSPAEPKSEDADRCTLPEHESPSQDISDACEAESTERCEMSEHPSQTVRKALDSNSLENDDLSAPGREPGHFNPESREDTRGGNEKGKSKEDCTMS
UniProt Q12912: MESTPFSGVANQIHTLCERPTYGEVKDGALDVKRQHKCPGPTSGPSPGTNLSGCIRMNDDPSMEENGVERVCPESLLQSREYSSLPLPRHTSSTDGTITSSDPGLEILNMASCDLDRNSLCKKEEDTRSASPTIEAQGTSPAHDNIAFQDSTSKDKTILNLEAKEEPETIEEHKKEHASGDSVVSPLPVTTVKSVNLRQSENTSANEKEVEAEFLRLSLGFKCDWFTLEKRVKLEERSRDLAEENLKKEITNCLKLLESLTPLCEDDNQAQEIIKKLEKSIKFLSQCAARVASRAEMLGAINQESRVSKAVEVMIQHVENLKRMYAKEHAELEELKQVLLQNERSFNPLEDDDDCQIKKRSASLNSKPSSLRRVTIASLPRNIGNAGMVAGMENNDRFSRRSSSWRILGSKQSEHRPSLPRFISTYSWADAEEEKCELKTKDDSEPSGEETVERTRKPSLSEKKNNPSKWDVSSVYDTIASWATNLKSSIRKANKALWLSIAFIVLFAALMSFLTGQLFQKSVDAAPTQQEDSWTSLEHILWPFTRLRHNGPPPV
UniProt Q6MZP7: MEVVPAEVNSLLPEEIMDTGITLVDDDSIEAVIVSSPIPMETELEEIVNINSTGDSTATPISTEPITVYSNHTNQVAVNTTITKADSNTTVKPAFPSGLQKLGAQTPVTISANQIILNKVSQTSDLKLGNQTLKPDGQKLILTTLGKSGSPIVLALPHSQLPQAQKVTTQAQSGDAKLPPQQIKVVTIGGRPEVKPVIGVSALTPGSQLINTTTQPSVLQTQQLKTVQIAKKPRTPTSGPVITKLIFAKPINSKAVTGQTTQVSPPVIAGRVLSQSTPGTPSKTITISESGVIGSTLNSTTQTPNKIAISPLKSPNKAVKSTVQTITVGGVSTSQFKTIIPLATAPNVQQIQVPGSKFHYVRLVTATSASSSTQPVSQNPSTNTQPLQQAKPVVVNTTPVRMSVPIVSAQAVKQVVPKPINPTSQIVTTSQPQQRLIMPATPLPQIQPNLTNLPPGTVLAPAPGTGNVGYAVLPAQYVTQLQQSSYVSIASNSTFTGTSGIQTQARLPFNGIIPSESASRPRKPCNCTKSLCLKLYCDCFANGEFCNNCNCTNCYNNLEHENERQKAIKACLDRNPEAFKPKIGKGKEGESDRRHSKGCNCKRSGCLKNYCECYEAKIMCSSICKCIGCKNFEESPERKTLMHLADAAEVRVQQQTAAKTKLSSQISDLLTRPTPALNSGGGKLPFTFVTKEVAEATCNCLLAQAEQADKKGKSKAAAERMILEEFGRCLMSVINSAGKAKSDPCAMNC
UniProt Q96II8: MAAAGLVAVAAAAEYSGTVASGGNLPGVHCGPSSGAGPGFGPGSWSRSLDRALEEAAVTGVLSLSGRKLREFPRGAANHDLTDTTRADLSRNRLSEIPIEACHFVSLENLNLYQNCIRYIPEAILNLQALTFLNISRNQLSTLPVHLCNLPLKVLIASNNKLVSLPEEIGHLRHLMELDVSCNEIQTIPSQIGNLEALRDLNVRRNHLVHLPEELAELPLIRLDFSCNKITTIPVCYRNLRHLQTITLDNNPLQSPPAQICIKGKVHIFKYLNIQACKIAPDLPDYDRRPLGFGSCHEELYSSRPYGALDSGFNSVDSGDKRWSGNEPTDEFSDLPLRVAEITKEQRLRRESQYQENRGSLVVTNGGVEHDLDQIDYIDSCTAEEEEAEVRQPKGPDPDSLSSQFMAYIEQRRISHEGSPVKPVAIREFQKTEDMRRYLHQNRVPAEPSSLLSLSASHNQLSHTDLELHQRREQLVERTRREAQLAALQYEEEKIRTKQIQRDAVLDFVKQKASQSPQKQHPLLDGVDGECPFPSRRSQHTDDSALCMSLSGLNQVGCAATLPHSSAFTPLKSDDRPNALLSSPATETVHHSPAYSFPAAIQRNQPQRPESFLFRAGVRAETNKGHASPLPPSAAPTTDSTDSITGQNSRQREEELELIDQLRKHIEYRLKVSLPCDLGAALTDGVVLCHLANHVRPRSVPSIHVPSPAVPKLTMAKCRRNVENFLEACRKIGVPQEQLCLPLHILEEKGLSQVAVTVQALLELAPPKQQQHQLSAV
UniProt O75427: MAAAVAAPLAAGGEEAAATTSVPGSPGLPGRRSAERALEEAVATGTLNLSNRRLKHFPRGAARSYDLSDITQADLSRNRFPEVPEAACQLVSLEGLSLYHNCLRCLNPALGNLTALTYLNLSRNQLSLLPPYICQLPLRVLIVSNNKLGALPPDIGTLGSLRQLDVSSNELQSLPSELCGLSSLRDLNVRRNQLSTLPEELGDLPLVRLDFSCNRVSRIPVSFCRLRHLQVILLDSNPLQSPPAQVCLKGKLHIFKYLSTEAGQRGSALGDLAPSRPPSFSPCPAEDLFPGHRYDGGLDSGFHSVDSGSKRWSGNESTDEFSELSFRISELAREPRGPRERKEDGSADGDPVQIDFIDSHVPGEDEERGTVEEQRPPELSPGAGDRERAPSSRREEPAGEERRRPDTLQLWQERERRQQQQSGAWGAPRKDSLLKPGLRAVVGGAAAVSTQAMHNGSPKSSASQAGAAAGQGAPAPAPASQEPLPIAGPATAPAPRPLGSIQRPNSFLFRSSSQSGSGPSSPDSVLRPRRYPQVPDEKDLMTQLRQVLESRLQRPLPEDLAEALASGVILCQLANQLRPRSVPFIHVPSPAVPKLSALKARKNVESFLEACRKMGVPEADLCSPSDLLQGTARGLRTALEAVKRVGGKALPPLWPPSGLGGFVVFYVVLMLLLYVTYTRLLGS
UniProt Q15048: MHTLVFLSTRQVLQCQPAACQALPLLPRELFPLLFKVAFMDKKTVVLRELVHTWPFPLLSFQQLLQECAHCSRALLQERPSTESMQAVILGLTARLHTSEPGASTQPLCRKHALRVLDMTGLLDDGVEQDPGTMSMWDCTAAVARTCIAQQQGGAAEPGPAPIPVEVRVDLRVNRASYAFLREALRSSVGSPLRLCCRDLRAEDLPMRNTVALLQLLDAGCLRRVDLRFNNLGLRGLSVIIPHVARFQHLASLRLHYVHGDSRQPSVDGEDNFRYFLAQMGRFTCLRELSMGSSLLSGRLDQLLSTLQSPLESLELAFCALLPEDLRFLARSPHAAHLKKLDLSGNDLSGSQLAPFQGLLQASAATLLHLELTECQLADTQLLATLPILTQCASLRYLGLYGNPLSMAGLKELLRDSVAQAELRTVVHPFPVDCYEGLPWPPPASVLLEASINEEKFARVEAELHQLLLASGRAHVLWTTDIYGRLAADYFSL
UniProt P49917: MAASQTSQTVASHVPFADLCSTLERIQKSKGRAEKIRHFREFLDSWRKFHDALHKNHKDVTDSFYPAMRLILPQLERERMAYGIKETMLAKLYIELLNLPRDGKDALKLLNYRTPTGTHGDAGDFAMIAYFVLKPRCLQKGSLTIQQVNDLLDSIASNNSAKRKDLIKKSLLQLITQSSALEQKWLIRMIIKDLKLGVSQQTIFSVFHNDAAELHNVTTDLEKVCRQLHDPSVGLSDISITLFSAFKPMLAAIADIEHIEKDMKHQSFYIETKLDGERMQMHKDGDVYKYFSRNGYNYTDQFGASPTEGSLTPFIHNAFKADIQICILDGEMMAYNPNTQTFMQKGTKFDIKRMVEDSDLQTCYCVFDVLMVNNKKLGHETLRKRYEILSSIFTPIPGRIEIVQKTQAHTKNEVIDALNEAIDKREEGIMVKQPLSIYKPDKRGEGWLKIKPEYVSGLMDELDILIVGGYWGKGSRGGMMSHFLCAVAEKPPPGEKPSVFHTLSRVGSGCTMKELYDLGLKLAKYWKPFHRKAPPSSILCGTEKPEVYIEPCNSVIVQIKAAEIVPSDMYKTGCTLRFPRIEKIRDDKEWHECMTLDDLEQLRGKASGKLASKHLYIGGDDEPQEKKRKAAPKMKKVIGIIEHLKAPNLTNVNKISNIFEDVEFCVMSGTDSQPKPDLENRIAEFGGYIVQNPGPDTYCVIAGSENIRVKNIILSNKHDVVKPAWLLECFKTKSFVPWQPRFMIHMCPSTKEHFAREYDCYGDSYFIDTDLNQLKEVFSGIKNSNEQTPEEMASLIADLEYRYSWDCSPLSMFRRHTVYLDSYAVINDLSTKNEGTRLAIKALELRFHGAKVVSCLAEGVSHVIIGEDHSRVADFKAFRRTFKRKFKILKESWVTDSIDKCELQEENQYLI

What follows are targets tested with CC1Cc2ccccc2N1C(=O)C1CCCN(C1)C(=O)CCl (mixture of isomers) [TRIM25 ligand 11 (diastereomer mixture)] (assay: probe-labelled cysteine peptide fold change vs DMSO (competition) (log2 fold change); higher = less target engagement (more negative = stronger competition)). Details: 10 µM; THP-1; incubation time: 4 h.
With “LRRC58_Q96CX6_296_YLGSASNCPNPK (UniProt Q96CX6)” the “probe-labelled cysteine peptide fold change” value was -0.075.
In the case of “LIG1_P18858_280_NNYHPVEDACWKPGQK (UniProt P18858)”, the “probe-labelled cysteine peptide fold change” value is reported as -0.132.
With “LRPPRC_P42704_848_GDLSTALEVAIDCYEK (UniProt P42704)” the “probe-labelled cysteine peptide fold change” value was -0.0647.
“LIMS1_P48059_164_NDPYHPDHFNCANCGK (UniProt P48059)” was tested, and the “probe-labelled cysteine peptide fold change” value was -0.0737.
In the case of “LRRFIP1_Q32MZ4_726+742_CTLPEHESPSQDISDACEAESTER (UniProt Q32MZ4)”, the “probe-labelled cysteine peptide fold change” value is reported as 0.365.
In the case of “LRMP_Q12912_355_SFNPLEDDDDCQIK (UniProt Q12912)”, the “probe-labelled cysteine peptide fold change” value is reported as -0.202.
For “LIN54_Q6MZP7_729_CLMSVINSAGK (UniProt Q6MZP7)”, the “probe-labelled cysteine peptide fold change” value was 0.0549.
For “LRCH3_Q96II8_182_HLMELDVSCNEIQTIPSQIGNLEALR (UniProt Q96II8)”, the “probe-labelled cysteine peptide fold change” value was -0.193.
For “LRCH4_O75427_213_LDFSCNR (UniProt O75427)”, the “probe-labelled cysteine peptide fold change” value was -0.0947.
“LRRC14_Q15048_71_ELVHTWPFPLLSFQQLLQECAHCSR (UniProt Q15048)” was tested, and the “probe-labelled cysteine peptide fold change” value was -0.141.
“LRCH4_O75427_88_NRFPEVPEAACQLVSLEGLSLYHNCLR (UniProt O75427)” was tested, and the “probe-labelled cysteine peptide fold change” value was -0.0264.
In the case of “LIG4_P49917_855_VVSCLAEGVSHVIIGEDHSR (UniProt P49917)”, the “probe-labelled cysteine peptide fold change” value is reported as -0.00498.
In the case of “LSS_P48449_700_SCAISYTSYR (UniProt P48449)”, the “probe-labelled cysteine peptide fold change” value is reported as -0.0251.
With “LGALS9_O00182_102_GMPFDLCFLVQSSDFK (UniProt O00182)” the “probe-labelled cysteine peptide fold change” value was -0.159.
“LIG4_P49917_747_FMIHMCPSTK (UniProt P49917)” was tested, and the “probe-labelled cysteine peptide fold change” value was -0.112.
“LRCH4_O75427_134_NQLSLLPPYICQLPLR (UniProt O75427)” was tested, and the “probe-labelled cysteine peptide fold change” value was 0.321.
